{"sequences": {"note": "Protein sequences, listed by entry. Tags and fused reporters are not part of them. Lines headed by an entry give the natural chain unless they say otherwise; changes in a name come on top.", "UniProt C7C422": "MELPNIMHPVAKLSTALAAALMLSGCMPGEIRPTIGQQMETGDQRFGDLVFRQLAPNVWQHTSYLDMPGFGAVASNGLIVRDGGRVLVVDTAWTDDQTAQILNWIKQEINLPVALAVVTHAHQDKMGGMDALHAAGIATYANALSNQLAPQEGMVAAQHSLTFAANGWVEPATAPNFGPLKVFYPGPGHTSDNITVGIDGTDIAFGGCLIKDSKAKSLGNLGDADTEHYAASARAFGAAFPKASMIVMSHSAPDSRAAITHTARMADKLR"}, "source": "PubChem BioAssay AID1794844", "about": "(National Center for Advancing Translational Sciences (NCATS), 2023)", "note": "Out of some 2,800 compounds screened, fewer than 10 were called active. About 7% were inconclusive and are not listed. The call rests on the fitted dose curve; in most records, active means well fitted inhibition curve with a large enough effect; inconclusive means small, poorly fitted or top-dose-only effect; inactive means no such curve, though single readings can be large or run the other way. Some of the results follow."}
{"target": "Metallo-beta-lactamase type 2 (Klebsiella pneumoniae) (UniProt C7C422)", "test": "qHTS to identify inhibitors of the New Delhi Metallo-beta-lactamase (NDM): Nitrocefin screen against the machine-based learning selections; further: % of control where 0% means no effect.", "settings": "NDM-1 enzyme, nitrocefin hydrolysis, absorbance 485 nm; activity, negative = inhibition: at the top concentration", "excerpt": "Assay Submitter (PI): James Inglese Ph.D., Patricia Dranchak Ph.D., Mahesh Aitha Ph.D. Assay Development and Screening Technology Laboratory (ADST) National Center for Advancing Translational Sciences (NCATS), Rockville, MD National Institute of Health (NIH), Bethesda, Maryland The metallo-beta-lactamases (MBL) are a main antibiotic resistance mechanism evolved by bacteria. There is an urgent clinical need for MBL inhibitors to mitigate this growing threat. To support a machine-based learning study, qHTS has been used to experimentally test inhibitors identified by prediction tools.\nPROTOCOL TABLE (as described by Inglese et al., 2007) SEQUENCE No. (e.g., 1, 2, 3, etc.); […] (e.g., enzyme, Incubation, Reagent, etc.); VALUE; DESCRIPTION Primary Screen 1; NDM-1; 4 uL of 3 nM enzyme [2 nM final] in 50 mM HEPES (pH 7.0), 1 uM […], 0.01% Tween20; Use BioRaptr to dispense into two sets of Aurora black, clear bottom high base 1536-well plates 2; Compounds; 23 nL; Use Pin Tool (Wako) to transfer DMSO control and library compounds in DMSO 3; Incubate; >30 min 4a; Reagent; 2 uL of 50 uM nitrocefin [16.7 uM final] to one set of assay plates 4b; Reagent; 2 uL of 150 uM meropenem [50 uM final] to second set of assay plates 5a; Incubate; 15 min 5b; Incubate; 30 min 6a; Detector; Absorbance at 485 nm (bandwidth = 5 nm, 25 flashes/well) on Tecan Infinity 6b; Detector; Absorbance at 300 nm (bandwidth = 5 nm, 25 flashes/well) on Tecan Infinity NOTES (numbers refer to sequence above) 1; Column 1 of each plate received assay buffer without enzyme and columns 2-48 received enzyme for a final assay concentration of 2 nM. 2; Control plate contained DMSO in columns 1, 2, 3, and 4. 3; Compound interaction with enzyme. 4; Nitrocefin and meropenem substrates were prepared in the same assay buffer as step 1 for a final assay concentration of 16.7 uM and 50 uM, respectively, and added to all wells across respective sets of assay plates. 5; Default reader settings were applied for absorbance read at 485 nm (nitrocefin) or 300 nm (meropenem), bandwidth = 5 nm, 25 flashes/well. References: Inglese J, Shamu CE, Guy RK. 2007. Reporting data from high-throughput screening of small-molecule libraries. Nat Chem Biol. doi:10.1038/nchembio0807-438 Yasgar A, Shinn P, Jadhav A, Auld D, Michael S, Zheng W, Austin CP, Inglese J, Simeonov A. 2008. Compound Management for Quantitative High-Throughput Screening. J Lab Autom 13:79 - 89. doi:10.1016/j.jala.2007.12.004"}
{"molecule": "COCC(=O)Nc1nc2c(s1)C[C@@H]1[C@](C)(CO)[C@H](O)CC[C@@]1(C)[C@@H]2CC(=O)NCc1cccnc1", "activity, negative = inhibition": "inactive: 1.09%"}
{"molecule": "CN1[C@@H](CCC(=O)N2CCOCC2)CNC(=O)[C@@H]2[C@H]1CCN2Cc1cccc(OC(F)(F)F)c1", "activity, negative = inhibition": "inactive: -10.5%"}
{"molecule": "Cc1ccc(NC(=O)N[C@@H]2C=C(C(=O)N[C@H](CC(C)C)C(N)=O)C[C@@H](O)[C@@H]2O)cc1", "activity, negative = inhibition": "inactive: 2.2% [at 57.5 µM]"}
{"molecule": "Cc1[nH]c2c(c1C(=O)N1CCCC(CCc3ccc(F)cc3)C1)C(=O)CCC2", "note": "(stereo not drawn)", "activity, negative = inhibition": "inactive: -1.72%"}
{"molecule": "COCCCNc1ccc(C(=O)N2CCC(CN3CCCC3=O)CC2)cn1", "activity, negative = inhibition": "inactive: 2.58%"}
{"molecule": "Cc1ccc(C(c2cccnc2)n2cc(-c3cncnc3)nn2)cc1C", "note": "(stereo not drawn)", "activity, negative = inhibition": "inactive: -3.58%"}
{"molecule": "CCC1(N2CCN(C(=O)CCc3c[nH]c4ccccc34)CC2)CCN(C(=O)NC)C1", "note": "(stereo not drawn)", "activity, negative = inhibition": "inactive: 3.42%"}
{"molecule": "CCOc1ccc2c(n1)CCN(C(=O)Nc1cc(C)cc(C)c1)C2", "activity, negative = inhibition": "inactive: 4.94%"}
{"molecule": "O=C1CC(c2ccccc2)N(C(=O)C2CC2)CCCN(C(=O)NCc2ccccc2)CCN1", "note": "(stereo not drawn)", "activity, negative = inhibition": "inactive: 1.82%"}
{"molecule": "NC(=O)c1ccc(O[C@@H]2COCC[C@H]2NC(=O)Cc2ccc(O)cc2)cc1", "activity, negative = inhibition": "inactive: -1.07%"}
{"molecule": "Cc1ccccc1-c1cc(O)c2c(c1)CNCCO2", "activity, negative = inhibition": "inactive: -6.93%"}
{"molecule": "COc1ccc(NC(=O)Cc2c[nH]c3ncc(-c4ccccc4)cc23)cc1", "activity, negative = inhibition": "inactive: -5.41% [at 57.5 µM]"}
{"molecule": "CN1c2cccnc2CN(Cc2ccccn2)CC[C@H]1CO", "activity, negative = inhibition": "inactive: 14% [at 57.5 µM]"}
{"molecule": "COc1ccnc(CN2CCC3(CC2)CN(CCOc2ccccc2)C(=O)O3)c1OC", "activity, negative = inhibition": "inactive: 0.365%"}
{"molecule": "CC(c1ccc(-c2ccc(CC(=O)O)cn2)cc1)N1CCCCC1", "note": "(stereo not drawn)", "activity, negative = inhibition": "inactive: 6.38%"}
{"molecule": "COCc1cc(C[C@@H]2CC[C@H](O)[C@@H](CNC(=O)C(C)(C)C)O2)no1", "activity, negative = inhibition": "inactive: 1.65% [at 57.5 µM]"}
{"molecule": "CNC(=O)c1cc(-c2ccccc2O)cc2c1OCCN2Cc1cccnc1", "activity, negative = inhibition": "inactive: -8.06% [at 57.5 µM]"}
{"molecule": "CN1c2cc(C(=O)N3CCN(c4ccc(F)cc4)CC3)ccc2C(=O)N2CCCCCC21", "note": "(stereo not drawn)", "activity, negative = inhibition": "inactive: -2.29%"}
{"molecule": "O=C1NCC2(CCCN(C(=O)CCc3ccc(=O)[nH]n3)C2)O1", "note": "(stereo not drawn)", "activity, negative = inhibition": "inactive: -0.727%"}
{"molecule": "O=C(C[C@@H]1O[C@H](CNC(=O)c2ccccc2)[C@@H](O)[C@H]1O)Nc1ccccc1", "activity, negative = inhibition": "inactive: -12.3% [at 57.5 µM]"}
{"molecule": "Cc1cccc(CN2CCOc3c(O)cc(-c4ccccc4C)cc3C2)n1", "activity, negative = inhibition": "inactive: -2.29%"}
{"molecule": "O=C(Cc1c[nH]c2ncc(-c3ccccc3)cc12)NCCCn1ccnc1", "activity, negative = inhibition": "inactive: -11.4% [at 57.5 µM]"}
{"molecule": "CNC1CCN(c2ccc(-c3nc(CCCc4ccccc4)no3)cn2)CC1", "activity, negative = inhibition": "inactive: 3.3%"}
{"molecule": "O=C(Cc1ccccc1F)N1CCC(Oc2ncccc2C(=O)N2CCCCC2)C1", "note": "(stereo not drawn)", "activity, negative = inhibition": "inactive: 0.899%"}
{"molecule": "CC1(CNC(=O)c2cccs2)CCOCC1", "activity, negative = inhibition": "inactive: -4.47%"}
{"molecule": "Cc1nnc([C@H]2CCN(C3CCN(C)CC3)C2)o1", "activity, negative = inhibition": "inactive: -9.47% [at 76.7 µM]"}
{"molecule": "CC(=O)N1CCN(C(=O)c2nc(-c3ccccc3)cs2)CC(O)C1", "note": "(stereo not drawn)", "activity, negative = inhibition": "inactive: -0.806%"}
{"molecule": "Cc1ccc2c(C)c(C(=O)N3CC[C@H](O)[C@@H](O)C3)oc2c1", "activity, negative = inhibition": "inactive: 10.4%"}
{"molecule": "CN1CCCN(C[C@@H]2CN(C(=O)c3ccnn3C)C[C@@H]2CO)CC1", "activity, negative = inhibition": "inactive: -1.01%"}
{"molecule": "O=C(Cc1c[nH]c2ncc(-c3cccnc3)cc12)NC1CC1", "activity, negative = inhibition": "inactive: -9.07% [at 76.7 µM]"}
{"molecule": "COc1ccc(CNC(=O)CC[C@@H]2CNC(=O)[C@@H]3C[C@H](NCc4ccc(N(C)C)cc4)CN23)cc1", "activity, negative = inhibition": "inactive: 3.36%"}
{"molecule": "Nc1ccc2ncnc(N3CCCCC3)c2c1", "activity, negative = inhibition": "inactive: 8.2%"}
{"molecule": "Cc1nn(-c2ccccn2)c(C)c1[C@@H]1C=C[C@@H](NC(=O)c2ccco2)C1", "activity, negative = inhibition": "inactive: 9.13% [at 57.5 µM]"}
{"molecule": "COc1ccc(CN2CCNc3cc(Nc4ccccc4)ncc3C2)cc1O", "activity, negative = inhibition": "inactive: 8.33% [at 57.5 µM]"}
{"molecule": "O=C1CO[C@H](c2ccc(NC(=O)C3CCOCC3)cc2)[C@@H](CO)N1", "activity, negative = inhibition": "inactive: 2.38% [at 57.5 µM]"}
{"molecule": "O=C(CSc1ccncc1)N1CCN2C(=O)N(Cc3ccccc3)C(=O)[C@H]2C1", "activity, negative = inhibition": "inactive: 6.82% [at 57.5 µM]"}
{"molecule": "COCc1cc(=O)n(CC(=O)Nc2cccc(Cl)c2)c(N2CCOCC2)n1", "activity, negative = inhibition": "inactive: 6.38%"}
{"molecule": "COc1ccc(CN(C)Cc2ccncc2C)c(OCC(O)CN2CCCC2)c1", "note": "(stereo not drawn)", "activity, negative = inhibition": "inactive: 1.27%"}
{"molecule": "COc1ccc(NC(=O)Cn2c(N(C)Cc3ccccc3)nc(C)cc2=O)cc1Cl", "activity, negative = inhibition": "inactive: 5.16%"}
{"molecule": "COc1cc2c(cc1OC)C(C[C@H]1CN(C(=O)c3ccc(N(C)C)cc3)CC[C@H]1CC(=O)O)=NCC2", "activity, negative = inhibition": "inactive: 7.93%"}
{"molecule": "CC(C)CN(C)C(=O)c1cc(-c2cnn(C(C)C)c2)nc2cc(F)ccc12", "activity, negative = inhibition": "inactive: -1.69%"}
{"molecule": "OCc1ccc(-c2cc(-c3cccnc3)c3cncn3c2)cc1", "activity, negative = inhibition": "inactive: 31.1% [at 57.5 µM]"}
{"molecule": "O=C(c1ccccc1)N1CCC(c2nn(-c3ccccc3)c(=O)[nH]2)CC1", "activity, negative = inhibition": "inactive: 2.66%"}
{"molecule": "COc1ccc2nc3n(c2c1)[C@@H](CNCc1ccccc1)COC3", "activity, negative = inhibition": "inactive: -1.67% [at 57.5 µM]"}
{"molecule": "O=C1NC[C@@H](CCC(=O)N2CCc3ccccc32)N2C[C@@H](NCc3ccc(CO)o3)C[C@@H]12", "activity, negative = inhibition": "inactive: -3%"}
{"molecule": "CCCCCC(=O)Nc1nc2c(s1)C[C@@H]1[C@](C)(CO)[C@H](O)CC[C@@]1(C)[C@@H]2CC(=O)NCc1cc(F)cc(F)c1", "activity, negative = inhibition": "inactive: -16.9%"}
{"molecule": "CN1CCOc2c(C(=O)NCc3cccnc3)cc(-c3ccccc3O)cc21", "activity, negative = inhibition": "inactive: 0.182% [at 57.5 µM]"}
{"molecule": "Cc1ccccc1-c1cnc2n[nH]c(-c3ccccc3)c2n1", "activity, negative = inhibition": "inactive: 15% [at 76.7 µM]"}
